Laboratory results: PubChem BioAssay AID248 (DTP/NCI, 2004)
The list is a part of this screen's results and no random one: it is rich in T/C values a quarter to a half above the control, in often repeated tests (any T/C) and in doses without a T/C. Other doses and runs of a compound stand elsewhere. T/C: endpoint of the treated group in % of that of the vehicle group. Some doses have a count of surviving animals in place of a T/C: the source files T/C as zero there, which appears to mark a toxic dose or a test without result, not a measured value. Some doses without a T/C left all or most animals alive at the check, yet need not have been tolerated: the source hardly ever lists a survival T/C far under the control, and the zero likely stands for such cases as well. Counts of survivors are from the toxicity check (mostly the fifth day) where no day follows; animals may have died later. Schedules are NCI's codes, read here as Q, the interval in days (D) or hours (H), X, the number of doses. Some molecules as drawn cover several salts, stereoisomers or complexes of the source; a dose is that of the sample tested. For survival time, this PubChem deposit counts one and a half times the control or more as active, and values a quarter to a half above the control carry no call in these data; other NCI protocols may use other cut-offs. Some entries were tested several times; their values stand side by side, smallest first. Some T/C values carry the count of animals alive at the toxicity check (mostly the fifth day); where none is given, no animal had died by that day.

Tested on: L1210 leukemia ip in BDF1 mice, survival T/C
Experiment: NCI In Vivo Anticancer Drug Screen. Data for tumor model L1210 Leukemia (intraperitoneal) in B6D2F1 (BDF1) mice
Conditions: T/C endpoint: mean survival time, higher T/C = longer survival
[1] = dose: 100.0 mg/kg/injection, schedule: Q01DX009 (ip), vehicle: saline
[2] = dose: 100.0 mg/kg/injection, schedule: Q01DX001 (ip), vehicle: saline
[3] = dose: 200.0 mg/kg/injection, schedule: Q01DX001 (ip), vehicle: saline
[4] = dose: 200.0 mg/kg/injection, schedule: Q04DX003 (ip), vehicle: saline with Tween-80
[5] = dose: 400.0 mg/kg/injection, schedule: Q01DX001 (ip), vehicle: saline
[6] = dose: 400.0 mg/kg/injection, schedule: Q01DX009 (ip), vehicle: Klucel (hydroxypropylcellulose) (HPC)
[7] = dose: 400.0 mg/kg/injection, schedule: Q04DX003 (ip), vehicle: saline with Tween-80
[8] = dose: 100.0 mg/kg/injection, schedule: Q04DX002 (ip), vehicle: saline with Tween-80
[9] = dose: 400.0 mg/kg/injection, schedule: Q04DX002 (ip), vehicle: saline with Tween-80
[10] = dose: 400.0 mg/kg/injection, schedule: Q04DX002 (ip), vehicle: saline
[11] = dose: 200.0 mg/kg/injection, schedule: Q04DX003 (ip), vehicle: Klucel (hydroxypropylcellulose) (HPC)
[12] = dose: 400.0 mg/kg/injection, schedule: Q04DX003 (ip), vehicle: Klucel (hydroxypropylcellulose) (HPC)
[13] = dose: 150.0 mg/kg/injection, schedule: Q01DX009 (ip), vehicle: saline
[14] = dose: 300.0 mg/kg/injection, schedule: Q01DX009 (ip), vehicle: saline
[15] = dose: 200.0 mg/kg/injection, schedule: Q01DX009 (ip), vehicle: saline with Tween-80
[16] = dose: 100.0 mg/kg/injection, schedule: Q04DX002 (ip), vehicle: saline
[17] = dose: 200.0 mg/kg/injection, schedule: Q04DX002 (ip), vehicle: saline
[18] = dose: 100.0 mg/kg/injection, schedule: Q04DX003 (ip), vehicle: saline with Tween-80

With `CNC(=S)Nc1ncn(C=O)n1` the survivor count [1] was 6 of 6, the survivor count (dose: 200.0 mg/kg/injection, schedule: Q01DX009 (ip), vehicle: saline) was 6 of 6 and the survivor count (dose: 400.0 mg/kg/injection, schedule: Q01DX009 (ip), vehicle: saline) was 0 of 6.

`CC(C)(C)NC/C(=C\c1ccccc1)C(=O)c1ccccc1` was tested, and the survivor count [2] was 1 of 4, the survivor count (dose: 100.0 mg/kg/injection, schedule: Q01DX009 (ip), vehicle: Klucel (hydroxypropylcellulose) (HPC)) was 3 of 6 and the survivor count [3] was 1 of 4. The survivor count (dose: 200.0 mg/kg/injection, schedule: Q01DX009 (ip), vehicle: Klucel (hydroxypropylcellulose) (HPC)) was 5 of 6, the survivor count [4] was 0 of 6 and the survivor count [5] was 1 of 4. The survivor count [6] was 0 of 6 and the survivor count [7] was 0 of 6.

With `CCCCCCC[CH2][Sn]1([CH2]CCCCCCC)[O]OC(c2ccccc2)[O]1` (configuration not stated) the survivor count [8] was 0 of 3, the survivor count (dose: 200.0 mg/kg/injection, schedule: Q04DX002 (ip), vehicle: saline with Tween-80) was 0 of 3 and the survivor count [9] was 0 of 3.

For `O=C(OCc1ccccc1CN1CCCC1)c1ccc([N+](=O)[O-])cc1Cl`, the survivor count [10] was 1 of 3.

`COC(OC)(/C(Cl)=C(\Cl)c1ccccc1)c1ccccc1` was tested, and the survivor count [9] was 3 of 3.

`O=C(O)c1cc(Cl)c(Cl)s1` was tested, and the survivor count [11] was 0 of 6 and the survivor count [12] was 0 of 6.

With `CCN(CC)CCNc1ccc(C)c2sc3ccccc3c(=O)c12` (tested in a mixture with another compound) the survivor count (dose: 35.0 mg/kg/injection, schedule: Q01DX009 (ip), vehicle: saline) was 6 of 6, the T/C (dose: 50.0 mg/kg/injection, schedule: Q01DX009 (ip), vehicle: carboxymethylcellulose (CMC)) was 132 % of control and the T/C (dose: 60.0 mg/kg/injection, schedule: Q01DX015 (ip), vehicle: saline) was 128, 138, 148 % of control. The survivor count (dose: 75.0 mg/kg/injection, schedule: Q01DX009 (ip), vehicle: saline) was 5 of 6, the T/C (dose: 89.0 mg/kg/injection, schedule: Q01DX009 (ip), vehicle: carboxymethylcellulose (CMC)) was 148 % of control and the T/C (dose: 89.0 mg/kg/injection, schedule: Q01DX015 (ip), vehicle: carboxymethylcellulose (CMC)) was 125 [4 of 6 alive] and 135 % of control. The T/C (dose: 89.0 mg/kg/injection, schedule: Q01DX015 (ip), vehicle: saline) was 143 % of control, the T/C (dose: 133.0 mg/kg/injection, schedule: Q01DX015 (ip), vehicle: carboxymethylcellulose (CMC)) was 138 % of control and the T/C [13] was 138 % of control. For the same molecule, the survivor count [13] was 6 of 6, the survivor count (dose: 200.0 mg/kg/injection, schedule: Q01DX009 (ip), vehicle: carboxymethylcellulose (CMC)) was 6 of 6 and the T/C (dose: 200.0 mg/kg/injection, schedule: Q01DX015 (ip), vehicle: carboxymethylcellulose (CMC)) was 145 % of control. The survivor count (dose: 200.0 mg/kg/injection, schedule: Q01DX015 (ip), vehicle: saline) was 5 of 6, the survivor count (dose: 300.0 mg/kg/injection, schedule: Q01DX009 (ip), vehicle: carboxymethylcellulose (CMC)) was 6 of 6 and the T/C [14] was 127 % of control [4 of 6 alive]. For the same molecule, the survivor count [14] was 6 of 6, the survivor count (dose: 300.0 mg/kg/injection, schedule: Q01DX015 (ip), vehicle: saline) was 4 of 6 and the survivor count (dose: 600.0 mg/kg/injection, schedule: Q01DX001 (ip), vehicle: saline) was 3 of 6.

For `[Co+3].[NH-]CC(=O)O.[NH-]CC(=O)O.[NH-]CC(=O)O`, the survivor count [8] was 3 of 3 and the survivor count (dose: 800.0 mg/kg/injection, schedule: Q04DX002 (ip), vehicle: saline with Tween-80) was 2 of 3.

With `CC(C)CC1(C(C)C)C(=O)NC(=S)NC1=O` the survivor count (dose: 75.0 mg/kg/injection, schedule: Q01DX001 (ip), vehicle: saline) was 1 of 6, the survivor count (dose: 150.0 mg/kg/injection, schedule: Q01DX001 (ip), vehicle: saline) was 2 of 6 and the survivor count (dose: 300.0 mg/kg/injection, schedule: Q01DX001 (ip), vehicle: saline) was 0 of 6.

For `CC(C#N)N(C)C` (configuration not stated), the survivor count (dose: 40.0 mg/kg/injection, schedule: Q01DX001 (ip), vehicle: saline) was 0 of 4, the survivor count (dose: 50.0 mg/kg/injection, schedule: Q01DX001 (ip), vehicle: saline) was 0 of 4 and the survivor count (dose: 80.0 mg/kg/injection, schedule: Q01DX001 (ip), vehicle: saline) was 0 of 4. The survivor count [2] was 0 of 4, the survivor count [3] was 0 of 4 and the survivor count [5] was 0 of 4.

In the case of `Nc1cccc(Nc2cc(S(=O)(=O)O)c(N)c3c2C(=O)c2ccccc2C3=O)c1`, the survivor count [5] is reported as 1 of 6.

In the case of `COc1cc2c(cc1OC)C(C(C)C)NCC2O` (configuration not stated), the survivor count [5] is reported as 2 of 6.

For `CC(=O)OC1CCC2(C)C(=CC=C3C2CCC2(C)C3CC(OC(C)=O)C2C(C)C2CCC(C)CN2C(C)=O)C1` (configuration not stated), the survivor count [15] was 3 of 3.

For `CSc1cc(C)c(OC(=O)Nc2cc(C)ccc2C)c(C)c1`, the survivor count [1] was 6 of 6.

In the case of `CCCCCCCCCCCCCCCCCC[n+]1cccc(C(=O)N2CCOCC2)c1`, the survivor count [11] is reported as 6 of 6 and the survivor count [12] is reported as 0 of 6.

For `N=C(N)CCN`, the survivor count [5] was 2 of 4.

With `FC(F)(F)c1nc2cccc3c2n1CCC3` the survivor count [7] was 2 of 6.

With `O=S(=O)(O)SCC1=NCCN1` the survivor count [16] was 1 of 3, the survivor count [17] was 0 of 3 and the survivor count [10] was 0 of 3.

For `O=S(=O)(O)n1nc2ccccc2c1-c1ccccc1`, the survivor count [9] was 2 of 3.

`COc1ccc(CC(=O)NCCc2ccccc2)cc1OC` was tested, and the survivor count [18] was 3 of 6, the survivor count [15] was 0 of 6 and the survivor count [4] was 1 of 6. For the same molecule, the survivor count [7] was 0 of 6.

For `CCCCCCCCCCOC(CN)C(Cl)(Cl)Cl` (configuration not stated), the survivor count (dose: 50.0 mg/kg/injection, schedule: Q01DX009 (ip), vehicle: saline with Tween-80) was 3 of 6, the survivor count [18] was 2 of 6 and the survivor count [4] was 1 of 6. The survivor count [7] was 0 of 6.

`CCCCOc1ccc(OCCCCCCCCCC[N+](C)(C)C)cc1` was tested, and the T/C (dose: 6.25 mg/kg/injection, schedule: Q04DX002 (ip), vehicle: saline) was 144 % of control, the survivor count (dose: 25.0 mg/kg/injection, schedule: Q04DX002 (ip), vehicle: saline) was 0 of 3 and the survivor count (dose: 50.0 mg/kg/injection, schedule: Q04DX002 (ip), vehicle: saline) was 0 of 3. For the same molecule, the survivor count [16] was 1 of 3 and the survivor count [17] was 0 of 3.

With `C1=C(COC(c2ccccc2)(c2ccccc2)c2ccccc2)CCCC1` the survivor count (dose: 200.0 mg/kg/injection, schedule: Q01DX001 (ip), vehicle: carboxymethylcellulose (CMC)) was 4 of 4.

`Cc1ccc2c(c1)CC=CO2` was tested, and the survivor count [15] was 6 of 6, the survivor count (dose: 400.0 mg/kg/injection, schedule: Q01DX009 (ip), vehicle: carboxymethylcellulose (CMC)) was 6 of 6 and the survivor count (dose: 800.0 mg/kg/injection, schedule: Q01DX009 (ip), vehicle: carboxymethylcellulose (CMC)) was 0 of 6.

With `CCN(CC)CCNC(=O)Nc1ccc(OC)cc1` the survivor count [6] was 0 of 6.
